According to article PMC7862700:
The list shows a part of the results, in another mix than the full data. For part of these data: At the low end of the ranking, values are background and their order means little. The list shows a part of the results. For part of these data: The exact form of the protein is not confirmed.

Experiments:
Experiment in all cases: DAPPL (digital affinity profiling via proximity ligation, sequencing)
Details in all cases: 10 mM Tris-HCl pH 7.5, 50 mM NaCl, 1 mM DTT, 4% glycerol, room temperature, 30 min; GST-TFs on glutathione beads, 16-mer random dsDNA library, 0.1% …; high values mean tight binding; double strand, one strand shown; scale: fold enrichment (6-mer frequency, TF over GST control)
GABPA = target: T1, GABPA (UniProt Q06546)
T1 sequence: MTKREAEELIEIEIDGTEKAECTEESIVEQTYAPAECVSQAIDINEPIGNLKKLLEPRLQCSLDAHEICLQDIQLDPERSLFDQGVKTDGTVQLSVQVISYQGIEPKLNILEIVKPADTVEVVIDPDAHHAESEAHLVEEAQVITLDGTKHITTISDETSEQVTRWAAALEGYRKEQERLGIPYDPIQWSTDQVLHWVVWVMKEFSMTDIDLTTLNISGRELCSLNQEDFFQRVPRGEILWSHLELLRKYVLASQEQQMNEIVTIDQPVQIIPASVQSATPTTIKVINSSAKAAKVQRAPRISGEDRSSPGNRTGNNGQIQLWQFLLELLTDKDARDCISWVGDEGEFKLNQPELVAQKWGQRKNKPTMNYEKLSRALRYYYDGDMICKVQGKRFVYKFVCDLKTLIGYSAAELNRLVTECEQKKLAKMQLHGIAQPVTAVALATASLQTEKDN

ETS1 = target: T2, ETS1 (UniProt P14921)
T2 sequence: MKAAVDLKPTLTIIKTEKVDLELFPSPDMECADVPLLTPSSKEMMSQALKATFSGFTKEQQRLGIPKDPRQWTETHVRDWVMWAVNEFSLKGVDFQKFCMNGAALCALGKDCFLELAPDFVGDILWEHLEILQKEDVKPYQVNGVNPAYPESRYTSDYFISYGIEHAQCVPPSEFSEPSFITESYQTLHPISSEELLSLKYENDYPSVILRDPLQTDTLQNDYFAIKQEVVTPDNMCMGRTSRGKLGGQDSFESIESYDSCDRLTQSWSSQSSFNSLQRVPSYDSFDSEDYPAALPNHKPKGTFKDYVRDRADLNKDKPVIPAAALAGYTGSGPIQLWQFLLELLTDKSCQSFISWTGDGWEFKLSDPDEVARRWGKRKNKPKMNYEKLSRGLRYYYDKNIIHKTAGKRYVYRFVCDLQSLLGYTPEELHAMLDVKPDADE

SPDEF = target: T3, SPDEF (UniProt O95238)
T3 sequence: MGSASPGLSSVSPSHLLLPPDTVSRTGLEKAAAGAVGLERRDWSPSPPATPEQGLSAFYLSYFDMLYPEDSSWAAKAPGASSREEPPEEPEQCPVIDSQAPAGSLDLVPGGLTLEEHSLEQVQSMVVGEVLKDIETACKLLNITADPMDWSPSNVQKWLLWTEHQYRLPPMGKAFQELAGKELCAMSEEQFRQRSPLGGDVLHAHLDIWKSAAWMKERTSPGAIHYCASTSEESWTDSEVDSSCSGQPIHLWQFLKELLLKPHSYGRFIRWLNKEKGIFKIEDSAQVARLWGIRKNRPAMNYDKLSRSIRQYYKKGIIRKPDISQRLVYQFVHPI

Row | Sequence | binding signal (GABPA) | binding signal (ETS1) | binding signal (SPDEF)
1 | CGTGAA | 0.465 | 0.451 | 0.452
2 | GGGCCC | 0.937 | 0.812 | 0.829
3 | GGGGAC | 0.489 | 0.434 | 0.439
4 | CGAGGG | 0.708 | 0.682 | 0.603
5 | AAACGT | 0.927 | 0.952 | 0.938
6 | GTCGGA | 0.162 | 0.16 | 0.159
7 | GGGAGT | 0.242 | 0.226 | 0.226
8 | AGACCC | 0.683 | 0.764 | 0.716
9 | GGTGCG | 0.572 | 0.613 | 0.57
10 | GTCAGA | 0.641 | 0.624 | 0.584
11 | CAGGCG | 0.273 | 0.3 | 0.248
12 | AGACAC | 0.818 | 0.772 | 0.76
13 | AGGACA | 0.856 | 0.82 | 0.87
14 | ACGCAA | 0.914 | 0.94 | 0.863
15 | CGTGAC | 0.547 | 0.512 | 0.606
16 | GAGTTT | 0.596 | 0.633 | 0.559
17 | GGTGCT | 0.935 | 0.895 | 0.893
18 | AGAGGC | 0.765 | 0.67 | 0.632
19 | ATCGTG | 0.418 | 0.427 | 0.381
20 | ACGGGA | 0.542 | 0.577 | 0.514
21 | AACGAG | 0.869 | 0.805 | 0.758

Row | Sequence | binding signal (GABPA) | binding signal (ETS1) | binding signal (SPDEF)
22 | ACGTAG | 0.751 | 0.762 | 0.735
23 | TAGGAG | 0.417 | 0.39 | 0.396
24 | ACGGGC | 0.837 | 0.78 | 0.822
25 | GAGGAG | 0.231 | 0.24 | 0.192
26 | TGCCAG | 0.727 | 0.657 | 0.675
27 | TGCAGG | 0.965 | 0.95 | 0.915
28 | GGCGAG | 0.498 | 0.493 | 0.514
29 | CAGTGC | 0.748 | 0.813 | 0.773
30 | CGCAAG | 0.853 | 0.817 | 0.779
31 | GTGCGT | 0.572 | 0.598 | 0.573
32 | TATCGG | 0.829 | 0.848 | 0.854
33 | CAGTGG | 0.521 | 0.506 | 0.39
34 | GAGTGA | 0.413 | 0.419 | 0.387
35 | TACAGT | 0.909 | 0.884 | 0.885
36 | GGAGTC | 0.232 | 0.237 | 0.22
37 | GTCTGA | 0.728 | 0.78 | 0.768
38 | CGCGGG | 0.774 | 0.771 | 0.744
39 | GAGCAT | 0.754 | 0.692 | 0.793
40 | CCCAGC | 0.741 | 0.886 | 0.797
41 | GCCACG | 0.972 | 1 | 0.962
42 | GTGTGT | 0.522 | 0.501 | 0.535

Row | Sequence | binding signal (GABPA) | binding signal (ETS1) | binding signal (SPDEF)
43 | AGCTGG | 0.862 | 0.889 | 0.786
44 | CCAGAC | 0.721 | 0.671 | 0.638
45 | GTGAAC | 0.842 | 0.82 | 0.805
46 | AAGAGT | 0.95 | 0.837 | 0.789
47 | AGGCGT | 0.511 | 0.514 | 0.491
48 | AGCCAG | 0.483 | 0.45 | 0.43
49 | AGACAA | 0.813 | 0.808 | 0.716
50 | CAGGGA | 0.478 | 0.497 | 0.508
51 | GGCATG | 0.887 | 0.811 | 0.765
52 | GTGCGA | 0.746 | 0.916 | 0.787
53 | GGTGCA | 0.956 | 0.781 | 0.938
54 | GGCCAG | 0.491 | 0.425 | 0.448
55 | ACGAGA | 0.692 | 0.638 | 0.675
56 | GTCGTG | 0.365 | 0.438 | 0.369
57 | ACAGGC | 0.68 | 0.726 | 0.645
58 | GATCGT | 0.418 | 0.407 | 0.426
59 | GTACGG | 0.781 | 0.841 | 0.833
60 | CGAGCG | 0.889 | 0.922 | 0.906
61 | TGCCGT | 0.773 | 0.827 | 0.947
62 | AGTTCG | 0.76 | 0.828 | 0.653
63 | CGGTGC | 0.682 | 0.574 | 0.707

Row | Sequence | binding signal (GABPA) | binding signal (ETS1) | binding signal (SPDEF)
64 | CGAGGA | 0.659 | 0.643 | 0.64
65 | GACAAA | 0.964 | 0.961 | 0.922
66 | GGTACG | 0.822 | 0.824 | 0.78
67 | GACGCA | 0.586 | 0.535 | 0.542
68 | GAGGGC | 0.644 | 0.623 | 0.613
69 | TCCGTG | 0.521 | 0.482 | 0.627
70 | CGAGTC | 0.518 | 0.501 | 0.514
71 | TGTGTG | 0.862 | 0.807 | 0.904
72 | TGTCGT | 0.764 | 0.893 | 0.967
73 | AGGGAG | 0.342 | 0.375 | 0.297
74 | AAGGTG | 0.894 | 0.896 | 0.866
75 | GGCGTC | 0.732 | 0.845 | 0.735
76 | GCCGTG | 0.254 | 0.233 | 0.236
77 | GTCCGT | 0.527 | 0.483 | 0.616
78 | TGCGAG | 0.936 | 0.912 | 0.879
79 | CAGCGG | 0.409 | 0.413 | 0.42
80 | GAGATA | 0.709 | 0.638 | 0.67
81 | GGCCAA | 0.9 | 0.855 | 0.788
82 | TACCGT | 0.654 | 0.637 | 0.715
83 | GAGCAC | 0.757 | 0.697 | 0.683
84 | AGCCAA | 0.839 | 0.89 | 0.802

Copied from the results shown for reference:
Row | Sequence | binding signal (GABPA) | binding signal (ETS1) | binding signal (SPDEF)
79 | CAGCGG | 0.409 | 0.413 | 0.42
80 | GAGATA | 0.709 | 0.638 | 0.67
81 | GGCCAA | 0.9 | 0.855 | 0.788
82 | TACCGT | 0.654 | 0.637 | 0.715
83 | GAGCAC | 0.757 | 0.697 | 0.683
